Experimental data taken from patent US20230001083A1, “ACTUATABLE DEVICE FOR PULSATILE DRUG DELIVERY” (Massachusetts Institute of Technology, priority 2019, published 2023).
For some of these results: At least one read-out could not be matched to a standard name with certainty. For some of these results: At least one structure is not confirmed: it was looked up by name or label, or the drawing left a doubt.

Experiments:
[1] = Solubility of bromocriptine in EtOH / Tween 80 solvents; type: physicochemical
[2] = tested on: Zucker diabetic fatty (ZDF) rats; assay: Intraperitoneal glucose tolerance test (IPGTT) after 4 weeks of treatment; type: in vivo
[3] = tested on: Zucker diabetic fatty (ZDF) rats; assay: In vivo pharmacodynamics of bromocriptine: body weight and food intake
[4] = In vivo pharmacokinetics of lisinopril, pump versus subcutaneous injection; details: both groups (pump and subcutaneous injection)
Procedure: The time taken to reach the Cmax (Tmax) was 30 min in both groups. […] Drug leakage in the implanted pump was not detected during the non-actuation periods over a 28-day period.

[5] = both Inj-Br-E and Pump-Br-E versus Inj-Br-M
[6] = both evening bromocriptine groups versus morning bromocriptine group
[7] = all bromocriptine groups versus both control groups, daily for 4 weeks
[8] = both Inj-Br-E and Pump-Br-E versus Inj-Br-M, P<0.05

Row | SMILES | concentration up to which bromocriptine may be dissolved ([1]; solely EtOH) | concentration up to which bromocriptine may be dissolved ([1]; solely Tween 80) | pharmacodynamic parameters related to postprandial glucose metabolism ([2]; all bromocriptine groups versus control groups, IPGTT after 4 weeks) | area under the plasma glucose concentration-time curve (AUCglucose) [2, 5] | blood glucose levels after a glucose load [2, 5] | AUCinsulin [2, 6] | plasma insulin levels during the IPGTT [2, 6] | difference in pharmacodynamic parameters between Inj-Br-E and Pump-Br-E groups ([2]; pump delivery versus subcutaneous injection, evening) | body weight gain [3, 7] | total food intakes [3, 7] | body weight gain [3, 8] | total food intake [3, 8] | time taken to reach the Cmax (Tmax) [4] [min]
1 | CC(C)C[C@H]1C(=O)N2CCC[C@H]2[C@]2(O)O[C@](NC(=O)[C@@H]3C=C4c5cccc6[nH]c(Br)c(c56)C[C@H]4N(C)C3)(C(C)C)C(=O)N12 [bromocriptine] | approximately 7 mg/ml | approximately 5 mg/ml | better results than control groups | lower | lower | comparably lower | comparably lower | no significant difference | significantly lower | significantly lower | significantly lower | significantly lower | 
2 | NCCCC[C@H](N[C@@H](CCc1ccccc1)C(=O)O)C(=O)N1CCC[C@H]1C(=O)O [lisinopril] |  |  |  |  |  |  |  |  |  |  |  |  | 30
